Assay results from publication PMC6642205.
Results are given in words; binding and its absence hold for the method and conditions named. In cells and extracts the contact can be indirect. Sequences can lack the tags named with a protein.

Molecular target: MAVS without the transmembrane domain (TM)
Assay: co-IP; […] antibody and Protein G beads, 4 °C, 5 h; immunoblot

B1: NLK (Nemo-like kinase), transfected, tag not stated (enzyme, UniProt Q9UBE8 1-527)
chain: MSLCGARANAKMMAAYNGGTSAAAAGHHHHHHHHLPHLPPPHLHHHHHPQHHLHPGSAAAVHPVQQHTSSAAAAAAAAAAAAAMLNPGQQQPYFPSPAPGQAPGPAAAAPAQVQAAAAATVKAHHHQHSHHPQQQLDIEPDRPIGYGAFGVVWSVTDPRDGKRVALKKMPNVFQNLVSCKRVFRELKMLCFFKHDNVLSALDILQPPHIDYFEEIYVVTELMQSDLHKIIVSPQPLSSDHVKVFLYQILRGLKYLHSAGILHRDIKPGNLLVNSNCVLKICDFGLARVEELDESRHMTQEVVTQYYRAPEILMGSRHYSNAIDIWSVGCIFAELLGRRILFQAQSPIQQLDLITDLLGTPSLEAMRTACEGAKAHILRGPHKQPSLPVLYTLSSQATHEAVHLLCRMLVFDPSKRISAKDALAHPYLDEGRLRYHTCMCKCCFSTSTGRVYTSDFEPVTNPKFDDTFEKNLSSVRQVKEIIHQFILEQQKGNRVPLCINPQSAAFKSFISSTVAQPSEMPPSPLVWE
binding: no binding
